Assay results as given in US6495589B2, “Somatostatin antagonists and agonists that act at the SST subtype 2 receptor” (Pfizer Inc., priority 2000, dated 2002).
For at least one compound, name, drawing or mass did not settle the structure.

System: GH4C1 cells
Test: Rat pituitary assay for somatostatin receptor antagonists (cAMP content of GH4C1 cells)
Assay type: cell-based
Details: 10 nM somatostatin 14 in the presence of 100 nM VIP
Source text: This assay is designed to quantitate the activity of antagonists of somatostatin that interact directly at the somatostatin receptor. The assay facilitates discovery of agents which increase growth hormone secretion by modulating the inhibitory effects of somatostatin. As aforementioned, somatostatin (also abbreviated SRIF) inhibits GH secretion in the anterior pituitary by binding to a high affinity membrane-bound (and G-protein coupled) receptor which is coupled negatively to adenyl cyclase, thereby reducing intracellular levels of cAMP that would otherwise facilitate, for example, secretion/release of GH from cytoplasmic granules. […] The screen is designed to quantitate the ability of test agents to reverse SRIF's inhibition of the elevated intracellular cAMP levels produced by VIP.
In particular, cyclic AMP (cAMP) content of the pituitary cell line GH4C1 was used to differentiate somatostatin agonists from antagonists. […] This afforded a convenient way to conduct a homogenous immunoradiometric assay of cAMP content in cells lysed in situ, following incubation of the cells with test compound. cAMP content in the GH4C1 cells was determined according to the manufacturer's instructions, by comparison with standards at concentrations from 10 to 1,000 nM cAMP. […]
IC50 values are determined by polynomial regression and analzyed using a MACRO program. […]

C[C@H](N)C(=O)NCC(=O)N[C@H]1CSSC[C@@H](C(=O)O)NC(=O)[C@H](CO)NC(=O)[C@H]([C@@H](C)O)NC(=O)[C@H](Cc2ccccc2)NC(=O)[C@H]([C@@H](C)O)NC(=O)[C@H](CCCCN)NC(=O)[C@H](Cc2c[nH]c3ccccc23)NC(=O)[C@H](Cc2ccccc2)NC(=O)[C@H](Cc2ccccc2)NC(=O)[C@H](CC(N)=O)NC(=O)[C@H](CCCCN)NC1=O [somatostatin]
inhibition of VIP-increased cAMP content of the GH4C1 cells: partial inhibition
